Percent effect of library compounds

Protein sequences, listed by entry. Tags and fused reporters are not part of them.
UniProt P9WPC5, whole entry: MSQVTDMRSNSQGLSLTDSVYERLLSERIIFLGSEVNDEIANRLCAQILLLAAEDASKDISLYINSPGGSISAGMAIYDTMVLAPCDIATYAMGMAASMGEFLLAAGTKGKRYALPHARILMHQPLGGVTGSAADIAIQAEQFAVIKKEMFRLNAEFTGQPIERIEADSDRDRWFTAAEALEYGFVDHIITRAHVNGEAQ
UniProt P9WPC3, whole entry partner: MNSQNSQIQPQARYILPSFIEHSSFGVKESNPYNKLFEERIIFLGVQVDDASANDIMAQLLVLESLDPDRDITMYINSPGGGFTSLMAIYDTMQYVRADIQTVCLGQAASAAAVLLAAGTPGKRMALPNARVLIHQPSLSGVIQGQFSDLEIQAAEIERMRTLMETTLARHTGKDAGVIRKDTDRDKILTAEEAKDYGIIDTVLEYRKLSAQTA
UniProt P9WNZ1, whole entry: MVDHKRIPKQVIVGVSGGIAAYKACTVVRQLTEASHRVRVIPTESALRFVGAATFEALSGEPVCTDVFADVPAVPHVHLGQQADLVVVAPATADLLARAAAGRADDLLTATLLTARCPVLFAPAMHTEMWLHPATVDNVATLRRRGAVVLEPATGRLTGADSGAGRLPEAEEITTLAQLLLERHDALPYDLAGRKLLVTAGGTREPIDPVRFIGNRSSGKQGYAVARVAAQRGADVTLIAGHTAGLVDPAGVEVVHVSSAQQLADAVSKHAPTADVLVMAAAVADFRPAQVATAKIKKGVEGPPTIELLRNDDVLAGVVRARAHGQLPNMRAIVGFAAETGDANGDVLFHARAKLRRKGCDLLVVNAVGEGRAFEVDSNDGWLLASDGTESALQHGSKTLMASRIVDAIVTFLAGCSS

ClpP1P2: 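Protease assay of ClpP1P2, read by the AMC dye that it sets free. Target: ClpP1P2, Mycobacterium tuberculosis (UniProt P9WPC5 and UniProt P9WPC3). Compounds at 50 µM. Higher reads as stronger inhibition, judged from the few compounds that gave an IC50. Most other retested compounds had strongly negative values. Size under these conditions: about 69,000 compounds, about 10 of them at 50% or above in at least one test.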
CoaBC: 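Enzyme assay of CoaBC with a phosphate dye (Biomol Green) read at 650 nm. Target: Coenzyme A biosynthesis protein CoaBC, Mycobacterium tuberculosis (UniProt P9WNZ1). Tested at 30 µM. Higher reads as stronger inhibition, judged from the few compounds that gave an IC50. Most strong results did not repeat in a second test. Of about 67,000 compounds tested this way, about 40 (0.06%) reached 50% or more in at least one test.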
Toxoplasma: 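Assay of Toxoplasma gondii numbers, read through their beta-galactosidase reporter with a colour substrate. Tested at 10 µM. Higher reads as fewer parasites (inferred from which compounds were picked for retests). About 67,000 compounds were tested under these conditions; 0.38% (about 260) showed 50% or more at least once.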

The filed quantity is “Percent Effect” (%).
The controls that fix the scale are not given in the record; negative values are as filed.
Compounds were drawn at random from those tested, without regard to their results.
Two or more numbers in one place are separate tests of the same structure; such repeats can differ widely.
A dash means the value is not listed here; it may have been measured.

structure	ClpP1P2	CoaBC	Toxoplasma
O=C(c1cccc(F)c1)N1CCC2(CC1)CC(N1CCOCC1)C2	-1.206	0	-
CCc1noc(CN(C)Cc2cc3ccc(Cl)cc3[nH]c2=O)n1	-9.447	2.381	2.004
COCC1CN(Cc2cc(C)on2)Cc2cn(CC3CCCC3)nc21 (centres unmarked)	-18.7	-2.903	-
O=C(NCC1CCOCC1)[C@H]1C[C@@H]2CCN(c3nncs3)C[C@@H]2O1	-12.4	2.963	-
COc1ccc(CN2C[C@@H](CN(C)C)[C@@H](CO)C2)cc1OC	2.594	4.37	3.846
CN1CCCC1CCn1ccnc1-c1nc2ccccc2[nH]1 (centres unmarked)	0.3935	-14.88	1.816
c1cnn(Cc2nnc3n2CCCN(Cc2ccsc2)C3)c1	-0.299	-5.308	-
N#CCCN(CC1CCOC1)Cn1ccc(-c2cccs2)n1 (centres unmarked)	-5.656	0.6593	-8.771
N#Cc1ccc(N2CCCC3(CCC(=O)N3CC3CC3)CC2)nc1.O=C(O)C(F)(F)F (centres unmarked)	-	-	7.3
CN(C)C(=O)CO[C@@H]1CC[C@H]2[C@H]1OCCN2c1ncccn1	4.345	0.6342	-
CCCNC(=O)C(C)n1cc(Br)cn1 (centres unmarked)	10.86	-10	17.97
CCC(=O)N1CCN(C(=O)c2ccc(COC)o2)[C@H]2CS(=O)(=O)C[C@H]21	7.375	-4.959	-
CCC(CC)CNCC1(S(C)(=O)=O)CCOCC1	-6.109	5.063	0.1181
O=C(OC1CCC1)c1ncccc1C(F)(F)F	-1.107	5.042	-7.324
Cc1ccc(CN2CCc3ncc(CNC(=O)C4CCC4)n3CC2)o1	-4.238	6.173	-
CC(C)Cc1cc(C(=O)N2CCCN(c3cccnn3)CC2)[nH]n1	-5.085	2.644	1.229
Cc1ccc(S(=O)(=O)Nc2ccc(N3CCOCC3)cn2)cc1	-21.95	2.581	-0.1189
CC(=O)N1CCC(c2cc(Nc3ncccn3)nc(C)n2)C1 (centres unmarked)	-4.74	0.1239	-15.11
Fc1cccc(C(NCc2ncc[nH]2)c2ccccn2)c1 (centres unmarked)	8.991	4.263	-5.243
Cc1nc(C)n(CC2CN(CCOc3ccccc3C#N)CCO2)n1 (centres unmarked)	-20.89	3.133	-10.46
CCN1CCC2(CC1)CN(CCO)c1ccccc12	19.73	-	-3.722
CC(NC(=O)N1CCNC(=O)CC1)c1c(F)cccc1Cl (centres unmarked)	3.184	10.96	3.927
Cc1noc(C)c1CN1CCO[C@H]2CN(CC3CC3)C[C@H]21	2.127	2.445	-
CN1CCO[C@@H]2CN(S(=O)(=O)c3ccccc3)CC[C@@H]2C1	-2.868	-3.75	-
Cc1n[nH]cc1CNC1CCN(c2ccc(F)cc2)CC1.Cl	-	-	-20.43
COc1c(CNC2CCc3cc(Cl)ccc32)c(C)nn1C (centres unmarked)	-34.66	-9.651	1.369
CC(C)[C@H]1CN(c2cnccn2)C[C@@H]1NC(=O)C1(C#N)CCOCC1	-31.06	0	-9.341
Cc1cs/c(=N\C(=O)Cn2nc(N3CCSCC3)ccc2=O)[nH]1	2.054	-7.075	12.82
CNC(=O)c1cccc(C2CNCCN2C(=O)c2cccc(F)c2)c1 (centres unmarked)	2.465	4.657	-
CN(Cc1ccco1)C(=O)NC1CCCN(c2ncccn2)C1 (centres unmarked)	-7.964	3.169	15.39
CCCS(=O)(=O)CC(=O)N1CCN(CC2CC2)c2ccccc21	-0.09306	-10.18	-6.992
O=C(NC[C@H]1C[C@@H]2CCN1C[C@@H]2CN1CCCCC1)Nc1ccsc1	-6.085	-16.48	-
COc1ccc(F)c(CN2CCCC(O)(CNCc3ccoc3)C2=O)c1 (centres unmarked)	-7.121	3.24	10.67
Cc1nnsc1C(=O)NCc1cccnc1N(C)Cc1ccccc1	0.3586	4.481	-3.349
O=C(O)C(F)(F)F.[H][C@@]12COC[C@H](C(=O)N3CCOCC3)[C@]1([H])CN(Cc1c(C)noc1C)C2	-	-	-18.06
COC(=O)c1ccc(Cn2nc(C)cc2C)c(OC)c1	-1.942	-4.474	-2.862
NC(=O)c1cc(C2CCCN(C(=O)CCc3cscn3)C2)n[nH]1 (centres unmarked)	2.841	3.614	-0.7411
COCC[C@]1(O)CCN(CC(=O)NCc2ccccc2C)C[C@H]1C	-8.49	2.39	17.09
CN(C)S(=O)(=O)CCCN1CCCC1c1noc(C2CC2)n1 (centres unmarked)	-2.934	0.7874	-9.353
O=C(Cc1ccc2c(c1)OCCO2)NCc1ccc(-n2cncn2)nc1	-29.36	0.5821	-10.02
CS(=O)(=O)N1CC2(CCN(CC3CC3)C2)Cc2ccccc21 (centres unmarked)	-7.672	0.5263	-1.365
CC(C)Cc1cc(CNc2nc(-c3cccnc3)nc3c2CNC3)no1	3.561	-	-0.6483
CCCn1cc(Cl)c(C(=O)N2C[C@H]3C[C@H](OC)C[C@H]3C2)n1	6.831	-0.7177	-
O=C(c1ccsc1)N1CCCC(c2cc(C(F)(F)F)[nH]n2)C1 (centres unmarked)	-3.825	5.843	-2.197
N#CC1CCCN(S(=O)(=O)c2ccc(C(=O)NCC(F)F)cc2)C1 (centres unmarked)	-3.507	-0.2123	6.153
Cc1cnc(NC(=O)C(C)Oc2ccc3c(c2)OCO3)s1 (centres unmarked)	-1.532	11.64 and 45.12	12.87
CN1C(=O)COc2ccc(NC(=O)CCc3nc4cccnc4[nH]3)cc21	-6.354	16.93	11.8
N#Cc1ccc(F)c(CNC(=O)NC(CO)Cc2ccccc2)c1 (centres unmarked)	-6.685	2.232	-1.53
CC(=O)N1CCCC2(C1)CN(c1nncs1)CCO2.O=C(O)C(F)(F)F (centres unmarked)	-	-	12.3
Cc1ccnc(N2Cc3cnn(Cc4ccc(F)cc4)c3C2)n1	-8.691	7.198	0.1655
O=C(O)C(F)(F)F.[H][C@@]12CCN(Cc3cccs3)C[C@]1([H])O[C@H](C(=O)NC1CCC1)C2	-	-	-0.05546
CCN1CC2(CCN(Cc3nc(CSC)no3)CC2)CC1=O	12.15	-5.481	-2.622
Cc1cccc(C(=O)N2CCc3ncnc(C4CCOC4)c3CC2)n1 (centres unmarked)	1.115	0.3708	-
CO[C@@H]1c2ccccc2C2(CCN(C(=O)CNS(C)(=O)=O)CC2)[C@H]1O	2.796	6.651	30.51
O=C(Cc1ccc2c(c1)CCO2)N1CCCC1c1noc(C2CC2)n1 (centres unmarked)	-1.092	1.118	-2.94
[H][C@@]12CN(Cc3cccc(C(F)(F)F)c3)C[C@]1(C(=O)O)CNC2=O	-	-	0.6351
Cc1cc(C)n(CC2CN(Cc3cnc(C)s3)CCO2)n1 (centres unmarked)	-23.44	1.79	-4.597
COc1ccc(C(=O)Nc2cnn(CCN3CCOCC3)c2)c(O)c1	-23.74	3.676	9.168
O=C(NCc1cnc2n1CCN(CC1CCOCC1)C2)c1ccno1	17.92	0.7389	-
Cc1nc(CCNC(=O)C2CC(=O)N(C(C)C)C2)sc1C (centres unmarked)	-16.02	0.4878	-1.903
Cn1c2c(ccc1=O)CC(NC(=O)Cc1ccsc1)CC2 (centres unmarked)	3.481	-1.25	-22.4
CCC(CC)NC(=O)CN1CCSCC1	-0.4107	13.45	37.04
Cc1nc(CN2CCCC(CCNS(C)(=O)=O)C2)c[nH]1 (centres unmarked)	-16.59	4.386	-9.007
Cc1ccc(C(=O)N2CCc3ncnc(C)c3CC2)cc1F	-0.9295	-0.1965	1.066
CN(CCOc1ccc(C#N)cc1)CC1CCS(=O)(=O)C1 (centres unmarked)	0.0619	6.651	11.75
Cc1cccc(C)c1C(=O)N1C[C@@H](CN2CCOCC2)[C@@H](CO)C1	-2.843	1.809	-15.25
O=C(NCc1ccccc1CO)Nc1ccc2c(c1)CCC2	-0.9322	-4.365	-12.82
COCc1ncn(Cc2nc(-c3ccc(OC)cc3F)oc2C)n1	3.888	3.137	1.569
COc1ccc(CNCC2CNc3cc(C)nn3C2)cn1 (centres unmarked)	-13.73	13.05	-7.882
CNC(=O)CN1CCCC12CCN(C(=O)c1ccccc1F)CC2	-9.775	3.99	-
CC(c1c(F)cccc1F)N1CCN(Cc2nccn2C)CC1 (centres unmarked)	-13.53	10.68	-17.91
Fc1cccnc1O[C@@H]1CN(Cc2ccccn2)[C@@H]2CCCO[C@@H]21	-14.6	-3.008	-

9 of the entries, repeated:

structure,ClpP1P2,CoaBC,Toxoplasma
Cn1c2c(ccc1=O)CC(NC(=O)Cc1ccsc1)CC2 (centres unmarked),3.481,-1.25,-22.4
CCC(CC)NC(=O)CN1CCSCC1,-0.4107,13.45,37.04
N#CCCN(CC1CCOC1)Cn1ccc(-c2cccs2)n1 (centres unmarked),-5.656,0.6593,-8.771
Cc1noc(C)c1CN1CCO[C@H]2CN(CC3CC3)C[C@H]21,2.127,2.445,-
CO[C@@H]1c2ccccc2C2(CCN(C(=O)CNS(C)(=O)=O)CC2)[C@H]1O,2.796,6.651,30.51
NC(=O)c1cc(C2CCCN(C(=O)CCc3cscn3)C2)n[nH]1 (centres unmarked),2.841,3.614,-0.7411
[H][C@@]12CN(Cc3cccc(C(F)(F)F)c3)C[C@]1(C(=O)O)CNC2=O,-,-,0.6351
COC(=O)c1ccc(Cn2nc(C)cc2C)c(OC)c1,-1.942,-4.474,-2.862
CN1CCO[C@@H]2CN(S(=O)(=O)c3ccccc3)CC[C@@H]2C1,-2.868,-3.75,-

From ChEMBL document CHEMBL3988442, “University of Dundee, Small-Polar-MMV Screening Library” (2021).